Measured values as given in publication PMC7957176.

Target: Myc-TRAF domain of USP7 (human)
Assay: co-IP; cell lysates in RIPA buffer incubated with primary antibody pre-absorbed protein G sepharose beads at 4°C overnight, washed with RIPA buffer, Western blot

B1: Flag-ARMC5 (protein, UniProt Q96C12 1-935)
chain: MAAAKPTLTDSLSFCLAQLAAAAGEALGGEKDPATNETPLSRALLALRTRHIKAAGGIERFRARGGLRPLLALLRRAAAAGSAPSQAGPGSAPSSAASGASSPAPASGPAPSAVSSSSPTPPVRLRKTLDLALSILADCCTEGACRTEVRRLGGILPLVTILQCMKTDSIQNRTARALGNLAMEPESCGDIHCAGAVPLLVESLTACQDSQCLQSVVRALRNLADSPQHRLALAQQGAVRPLAELLATAPDAALTLALVRALLELSRGCSRACAEQLSLGGGLGPLVSLASHPKRAVREGTILILANLCAQGLIRPALGNAGGVEVLVDELRQRRDPNGASPTSQQPLVRAVCLLCREAINRARLRDAGGLDLLMGLLRDPRASAWHPRIVAALVGFLYDTGALGRLQALGLVPLLAGQLCGEAGEEEEEGREAASWDFPEERTPERAQGGSFRSLRSWLISEGYATGPDDISPDWSPEQCPPEPMEPASPAPTPTSLRAPRTQRTPGRSPAAAIEEPWGREGPALLLLSRFSQAPDPSGALVTGPALYGLLTYVTGAPGPPSPRALRILSRLTCNPACLEAFVRSYGAALLRAWLVLGVAPDDWPAPRARPTLHSRHRELGERLLQNLTVQAESPFGVGALTHLLLSGSPEDRVACALTLPFICRKPSLWRRLLLEQGGLRLLLAALTRPAPHPLFLFFAADSLSCLQDLVSPTVSPAVPQAVPMDLDSPSPCLYEPLLGPAPVPAPDLHFLLDSGLQLPAQRAASATASPFFRALLSGSFAEAQMDLVPLRGLSPGAAWPVLHHLHGCRGCGAALGPVPPPGQPLLGSEAEEALEAAGRFLLPGLEEELEEAVGRIHLGPQGGPESVGEVFRLGRPRLAAHCARWTLGSEQCPRKRGLALVGLVEAAGEEAGPLTEALLAVVMGIELGARVPA
**Q.** How did the binding turn out when B1 was run?
**A.** binds

No constants are given. Whether binding was seen depends on the method and setting. Binding seen in cells or lysates may run through a third protein. Binding can be weak; no strength is given. Where a sequence is shown, tags or fusion partners need not be part of it.
